Test results from article PMC11206880, “The RNA Helicase Ded1 from Yeast Is Associated with the Signal Recognition Particle and Is Regulated by SRP21” (Molecules, 2024).

Tested on: Ded1 + SRP21
Assay: EMSA (agarose)
Settings: SRP21 has little effect on Ded1 binding, higher-MW complexes retained in wells; EMSA: 20 mM Tris-base pH 8.8, 70 mM KOAc, 2 mM MgCl2, 10 ug/uL BSA, 1 mM DTT, with or without 5 mM AMP-PNP or ATP, 0.15 uM RNA, 15 min at 30 C; 1% agarose, 1x TBE, 4 C; recombinant protein; probe letters rebuilt from the primers and the genome; part of a longer molecule

“UGUAAUGGCUUUCUGGUGGGAUGGGAUACGUUGAGAAUUCUGGCCGAGGAACAAAUCCUUCCUCGCGGCUAGACACGGAUUGCACGCCCUUUGGGCAAGGGAUAGUUCUCUAUUCCGCACCGUGCCCUGUUGUGGCAACCGUCUUUCCUCCGUCGUAAAUUUGUCCUGGGCAGAGCUGUCUGCCCGGAGGCGGGAGAGUCCGUUCUGAAGUGUCCCGGCUAUAAUAAAUCGAUCUUUGCGGGCAGCCCGUUGGCAGGAGGCGUGAGGAAUCCGUCUCUCUGUCUGGUGCGGCAAGGUAGUUCUGGGUCCUUAGGGGCUCCACCUUCACCGCUGUUAGGGGAGUUUUAUCCAGCGUCAGCAAAGGUGACCCGUGAUGGAGGCGGCCGGGAUAGCACAUAUCAGUCGGAUAAUUGUGCAAGUUGAUCGCUUCGGCGGUUUAAUUUGGCGGUGCCAUCAGGAUUUACUCGCACAUUGUGGCCGUUCCCUCGGGGAUGGAGUGUGUCCUGAACCAUAUUUUU [SCR1 RNA (T7 transcript, 522 nt)]”: binds.

Construct, isoform or probe ends are uncertain for at least one entry.
